Assay results as given in paper PMC4513854.
These are yes or no findings as the source states them, for the method shown. Binding seen in cells or lysates may run through a third protein. Some results given as binding are weak or reduced against the parent protein; the word gives no strength.

The chains behind the UniProt entries cited, without tags or fusion partners. Where a name states a change or a piece, a line headed by the entry shows the natural chain unless it says otherwise.
UniProt P23511: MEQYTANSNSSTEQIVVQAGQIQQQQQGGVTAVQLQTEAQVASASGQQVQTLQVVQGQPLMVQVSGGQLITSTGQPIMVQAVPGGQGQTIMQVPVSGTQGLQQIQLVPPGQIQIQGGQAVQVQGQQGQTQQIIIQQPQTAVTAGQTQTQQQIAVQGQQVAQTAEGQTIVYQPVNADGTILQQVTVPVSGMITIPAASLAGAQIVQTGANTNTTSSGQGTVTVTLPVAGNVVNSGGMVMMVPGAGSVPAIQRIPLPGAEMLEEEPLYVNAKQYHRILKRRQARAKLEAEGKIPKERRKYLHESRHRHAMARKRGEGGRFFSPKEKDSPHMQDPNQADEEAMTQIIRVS
UniProt P48436: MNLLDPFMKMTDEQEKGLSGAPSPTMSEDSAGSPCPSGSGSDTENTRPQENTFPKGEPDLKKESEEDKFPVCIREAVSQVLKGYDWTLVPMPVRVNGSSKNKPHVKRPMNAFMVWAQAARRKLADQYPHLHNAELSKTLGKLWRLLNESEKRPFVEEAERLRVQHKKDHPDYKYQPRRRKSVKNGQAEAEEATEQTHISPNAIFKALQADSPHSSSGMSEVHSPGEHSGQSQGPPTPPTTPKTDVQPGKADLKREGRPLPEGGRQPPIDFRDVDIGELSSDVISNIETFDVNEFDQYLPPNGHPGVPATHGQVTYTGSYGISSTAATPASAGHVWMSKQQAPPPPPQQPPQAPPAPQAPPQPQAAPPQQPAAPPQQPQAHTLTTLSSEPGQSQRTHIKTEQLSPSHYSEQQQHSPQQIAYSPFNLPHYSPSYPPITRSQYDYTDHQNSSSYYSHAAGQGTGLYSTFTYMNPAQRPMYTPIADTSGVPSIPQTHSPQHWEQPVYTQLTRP

Columns and labels:
[1] = molecular target: NF-YA (human (endogenous in HCT116 and HT29)) (UniProt P23511); experiment: proximity ligation; in situ PLA with anti-FLAG and anti-NF-YA antibodies on HCT116 cells transfected with FLAG-tagged SOX9 constructs; endogenous NF-YA
[2] = molecular target: NF-YA (human (endogenous in HCT116 and HT29)) (UniProt P23511); experiment: proximity ligation; in situ PLA (Duolink) on fixed, permeabilised HCT116 and HT29 cells with anti-SOX9 and anti-NF-YA primary antibodies; endogenous proteins; control mouse IgG

binding [1]	binding [2]	Substance
no binding	–	FLAG-SOX9-303ΔC (from UniProt P48436 1-303) (domain or fragment)
–	binds	SOX9 (from UniProt P48436 1-509)
